The campaign covered roughly 140,000 compounds. About 4,300 (3.1%) were called active. The inconclusive results got no clear call from the source; some entries with a clear call stand among them for comparison.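 Rule for the calls: active = readout at or below -70, meaning at least 70% loss of cells showing the perinucleolar compartment, a nuclear body marking cancer cells; inconclusive = readout between -30 and a set limit; inactive = the rest.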
Assay: High Content Assay for Compounds that inhibit the Assembly of the Perinucleolar Compartment;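 note: plate controls were DMSO wells for no effect and camptothecin positive control wells for full effect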
Details: PC3M PTB-GFP, PNC prevalence imaging, 16 h; at 10 µM; hits give low values
In short: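 PC3M cells stably expressing PTB-GFP, 750–1000 cells/well, treated 16 h at 37 °C with compound (23 nl of library stock), in duplicate. After paraformaldehyde fixation and Hoechst stain, imaged at 20x; PNC prevalence scored by image analysis.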

Row | Compound | activity change (PNC), negative = inhibition
1 | CCOC(=O)N1CCN(C(=O)CS(=O)Cc2nc(-c3cccc(C)c3)oc2C)CC1 (stereo not drawn) | inactive: -28.3%
2 | O=C(N/N=C/c1coc2ccccc2c1=O)c1cc2ccccc2o1 | inactive: 11%
3 | Cc1cc(=O)oc2c(CN3CCN(C)CC3)c(O)c(Cl)cc12 | inconclusive: -40.6%
4 | COC(=O)C1=C(C)N(Cc2ccco2)C(=O)N[C@H]1c1ccc(Br)cc1 | inconclusive: -69.5%
5 | CCS(=O)(=O)N1CCN(c2ccccn2)CC1 | inactive: 13.3%
6 | COc1ccccc1-n1c(=S)sc2c(=O)n(Cc3ccco3)c(SC)nc21 | inconclusive: -55.9%
7 | Cc1cc(=O)c2cc(Br)ccc2[nH]1 | inconclusive: -51.3%
8 | CCOC(=O)c1ccc(CSc2nncn2N)o1 | inconclusive: -45.9%
9 | COc1ccc(C(C(=O)NC2CCCCC2)N(C(=O)CCl)c2ccc(C)cc2)cc1 (stereo not drawn) | inconclusive: -30.4%
10 | Fc1ccccc1/C=N/NC(=S)Nc1ccc(Cl)cc1Cl | inconclusive: -74.8%
11 | CCn1c(=S)[nH]c2ccccc21 | inconclusive: -57.5%
12 | CCCCc1nnc(SCc2ccc(OCC)cc2)n1N | inactive: 21.5%
13 | CCOCCCNC(=O)Cn1ncc2c(=O)oc3ccccc3c21 | inactive: -12.1%
14 | COc1ccc(/C=C/C(=O)OCC(=O)c2c(C)[nH]c3ccccc23)cc1OC | inactive: 74.4%
15 | Cc1ccccc1C(O)c1cccnc1 (stereo not drawn) | inconclusive: -31.8%
16 | CC(C)N(CC#CCC1(O)c2ccccc2-c2ccccc21)CCO | inactive: 7.38%
17 | CC(=O)N1CCN(c2ccc(Oc3nnnn3-c3ccccc3)cc2)CC1 | inconclusive: -72%
18 | CC1CCC/C(=C\Nc2ccc(O)cc2)C1=O (stereo not drawn) | inactive: 13%
19 | CN(C)CCCNS(=O)(=O)c1cc(Cl)ccc1Cl | inconclusive: -65.4%
20 | Cc1nn(-c2ccccc2)c(N2CCCCC2)c1/C=N/O | inconclusive: -32.9%
21 | CCNc1ccc(S(=O)(=O)N(C)C)cc1NCC(=O)Nc1ccc(Br)cc1F | inconclusive: -34.8%
22 | COc1ccc(CNC(=S)N/N=C/c2ccc(OC)c(OC)c2)cc1 | inactive: 40.5%
23 | CCC(C(=O)N1CCN(S(C)(=O)=O)CC1)c1ccccc1 (stereo not drawn) | inconclusive: -66.4%
24 | O=C(COc1ccc(Cl)cc1Cl)NCc1ccco1 | inactive: 36.7%

Row | Compound | activity change (PNC), negative = inhibition
25 | N/C(CCCN1CCCCC1)=N/O | inconclusive: -49.8%
26 | Nn1c(SCC(=O)NC2CCCCC2)nnc1-c1ccccc1 | inconclusive: -60.9%
27 | COc1ccc(NS(=O)(=O)c2ccc(OC)c(NC(=O)CCC3CCCC3)c2)cc1 | inconclusive: -46.5%
28 | Cc1noc(C)c1COc1ccc(C(=O)OCC(=O)c2ccc3c(c2)OCCO3)cc1 | inconclusive: -31.6%
29 | Cc1cccc2nc(-c3cccc(NC(=O)Cc4ccccc4)c3)cn12 | active: -109%
30 | Cc1ncc([N+](=O)[O-])n1CC(C)O (stereo not drawn) | inactive: 3.78%
31 | Cc1ccc(-n2ncc3c(NCC4CCCO4)ncnc32)c(C)c1 (stereo not drawn) | inactive: 37.6%
32 | CSc1ccccc1N=Cc1nc(-c2ccccc2)oc1O | inactive: 36.4%
33 | CCOC(=O)c1cnn(-c2nc(-c3cccc(F)c3)cs2)c1C(F)(F)F | inconclusive: -37.8%
34 | CCCn1c(SCc2cc(=O)[nH]c3ccccc23)nc2c1c(=O)n(C)c(=O)n2C | inactive: 3.24%
35 | S=C1N(c2ccccc2)C(c2ccc(Cl)cc2)N2CCCN12 (stereo not drawn) | inconclusive: -42.8%
36 | COc1ccc2[nH]c3c(Cl)ncnc3c2c1 | inconclusive: -36.9%
37 | Cn1c(=O)oc2cc(C(=O)c3ccccc3)ccc21 | inconclusive: -42.3%
38 | Cn1cccc1CNC(=O)Nc1ccc(Cl)cc1 | inconclusive: -51.6%
39 | Cc1cc(C)nc(NS(=O)(=O)c2ccc(NC(=O)c3cc(-c4ccccc4)nc4ccccc34)cc2)n1 | inconclusive: -52.6%
40 | Cc1cc(C)n(-c2nc(N(c3ccccc3)c3ccccc3)nc(-n3nc(C)cc3C)n2)n1 | active: -100%
41 | CC(C)NC(=O)NC(=O)COc1ccc(Br)cc1Br | inconclusive: -37.2%
42 | O=C(NCCC1=CCCCC1)C1CCN(C(=O)c2ccc(Cl)cc2)CC1 | inactive: 51.4%
43 | COc1cccc(-c2ccc(C#N)c(SCC(=O)NCCc3ccc(Cl)cc3)n2)c1 | inconclusive: -76.3%
44 | O=C(Nc1ccc(F)cc1)N1CCn2c(nc3ccccc32)C1 | inconclusive: -38.8%
45 | COc1ccc(CCN2C(=O)CC(C(N)=O)SC2=Nc2ccccc2)cc1OC (stereo not drawn) | inconclusive: -34.6%
46 | O=C(C1=NN(c2ccccc2)C2C(=O)N(c3ccccc3Cl)C(=O)C12)c1ccccc1 (stereo not drawn) | inconclusive: -40.3%
47 | CCOC(=O)C(=NCCOC)NNc1cc(Cl)ccc1Cl | inconclusive: -36.3%
48 | COc1ccc(-n2c(N)c(C(=O)NCc3ccco3)c3nc4ccccc4nc32)c(OC)c1 | inconclusive: -78.1%

Row | Compound | activity change (PNC), negative = inhibition
49 | COc1ccc(CNC(=O)COC(=O)C2CCC(C(C)(C)C)CC2)cc1 (stereo not drawn) | inconclusive: -54.2%
50 | O=C(COc1ccccc1)NC1=NCCS1 | inconclusive: -61.5%
51 | CCCCCCn1c(SCC(=O)OC)nc2c1c(=O)[nH]c(=O)n2C | inactive: -9.87%
52 | COC(=O)CCc1sc(Nc2ccc(Br)cc2)nc1-c1ccc(OC)cc1 | inconclusive: -34.4%
53 | CCCn1c(C)cc(/C=C(\C#N)C(=O)OCC(=O)NC(=O)NC(C)(C)C)c1C | inconclusive: -39%
54 | CN1CCN(Cc2nc3ccccc3c(=O)n2Cc2nc(-c3ccc([N+](=O)[O-])cc3)cs2)CC1 | inconclusive: -37.8%
55 | NNC(=O)c1cccc(COc2ccc(Br)cc2)c1 | inconclusive: -61.9%
56 | O=C(CSc1nc2ccccc2s1)NNC(=S)Nc1ccc(Br)cc1 | inactive: 48.9%
57 | CCOc1cc(C2C3=C(CCCC3=O)N(C)C3=C2C(=O)CCC3)cc(Cl)c1O | active: -100%
58 | CSc1nncc(/C(C)=N\Nc2ccccc2)n1 | inactive: -26%
59 | CCN(C(=S)Nc1cccc(C)c1)c1ccccc1 | inconclusive: -51.9%
60 | CCn1c2ccccc2c2cc(/C=N/n3c(C)nnc3C)ccc21 | inconclusive: -55.3%
61 | CCOc1cc(N2CCCC2)ccc1[N+](=O)[O-] | inactive: 4%
62 | COC(=O)c1ccc(C)c(NC(=S)NCc2ccc(Cl)cc2)c1 | inconclusive: -48%
63 | Cc1cc(C(=O)Nc2ccc(S(=O)(=O)N3CCCC3)cc2)cs1 | inconclusive: -56.5%
64 | O=C(CSc1nc2c(c(=O)n1-c1ccc(Cl)cc1)SCC2)N1CCOCC1 | inconclusive: -56.5%
65 | CCOc1c2ccc(C(=O)NCc3ccco3)cc2nn1CCOC | inconclusive: -60.8%
66 | CCC(C(=O)NC(C)CCc1ccccc1)n1nc(C)n2c(cc3occc32)c1=O (stereo not drawn) | inconclusive: -60.7%
67 | COc1ccccc1NC1=NC2(CCCC2)N=C(N)N1 | inconclusive: -37.9%
68 | O=C(c1cc2sccc2n1Cc1ccccc1)N1CCCc2ccccc21 | inconclusive: -62.6%
69 | Cc1ccc(O)c(N=Cc2sc3ccccc3c2Cl)c1 | inactive: 3.84%
70 | CN1CCN(c2ccc(S(=O)(=O)N3CCCCC3)cc2NC(=O)c2ccc(F)cc2F)CC1 | inconclusive: -61.9%
71 | CC1(C)CC(=O)C(C=NCCCN2CCOCC2)=C(O)C1 | inconclusive: -49%
72 | Cc1ccc(-c2cc(C(=O)N3CCOCC3)c3ccccc3n2)cc1 | active: -97.8%

4 of these compounds, set out differently:
Nn1c(SCC(=O)NC2CCCCC2)nnc1-c1ccccc1
  activity change (PNC), negative = inhibition: inconclusive: -60.9%
COc1ccc(NS(=O)(=O)c2ccc(OC)c(NC(=O)CCC3CCCC3)c2)cc1
  activity change (PNC), negative = inhibition: inconclusive: -46.5%
Cc1noc(C)c1COc1ccc(C(=O)OCC(=O)c2ccc3c(c2)OCCO3)cc1
  activity change (PNC), negative = inhibition: inconclusive: -31.6%
Cc1cccc2nc(-c3cccc(NC(=O)Cc4ccccc4)c3)cn12
  activity change (PNC), negative = inhibition: active: -109%

Later entries.

Row | Compound | activity change (PNC), negative = inhibition
73 | COc1cccc2c(=O)cc(C)n(CC(=O)Nc3ccc(C)c(C)c3)c12 | inconclusive: -57.9%
74 | O=C1NC(=O)/C(=C\c2ccc(Sc3ccc(Cl)cc3)o2)N1 | inconclusive: -41.4%
75 | COC(=O)c1c(NC(=O)CSc2nc(-c3ccco3)cc(C(F)(F)F)n2)sc2c1CCCC2 | inactive: -23.7%
76 | COc1ccccc1C(=O)NC(C)C(c1cccs1)N1CCOCC1 (stereo not drawn) | inconclusive: -34.7%
77 | COc1ccc(C2c3c(ccc4ccccc34)Oc3ncn4nc(-c5ccco5)nc4c32)cc1OC (stereo not drawn) | inactive: -19%
78 | Cc1c(Cl)cccc1NC(=O)CNc1cccc(S(=O)(=O)N(C)C)c1 | inactive: -13.2%
79 | CCCCSc1nnc(CNC(=O)C23CC4CC(CC(C4)C2)C3)n1Cc1ccccc1 | inactive: -9.63%
80 | CN1CCN(c2nc3nonc3nc2N2CCN(C)CC2)CC1 | inactive: 58.7%
81 | COCCNC(=O)c1cc2ncc(Br)cn2n1 | inconclusive: -31.8%
82 | O=S(=O)(c1ccccc1)N1CCN(C2CCN(Cc3ccccc3)CC2)CC1 | inconclusive: -34.6%
83 | COC(=O)c1ccc(C(=O)OC)c(NC(=O)COC(=O)C2CCCCC2)c1 | inconclusive: -45.5%
84 | N#CC1=C(N)C(C#N)(C#N)C(c2cccnc2)C2CCCC=C12 (stereo not drawn) | inactive: 3.49%
85 | O=C(Nc1ccccc1)/C(=C/c1cccnc1)NC(=O)c1ccco1 | inconclusive: -32.8%
86 | O=C(Cn1c(=O)sc2ccccc21)NCCOc1ccccc1F | inactive: -22.6%
87 | O=C(CSc1nnc(C2CC2)n1-c1ccccc1)Nc1ccc(N2CCOCC2)cc1 | inconclusive: -52%
88 | Cn1c(=O)c(C(=O)CCl)c(N)n(CC2CC2)c1=O | inactive: 33%
89 | Brc1ccc(NC2=Nc3ccccc3CC2)cc1 | inactive: 46.5%
90 | CCOC(=O)c1[nH]c(C)c(C(=O)NCc2cccnc2)c1C | inconclusive: -39%
91 | Cc1ccc(Cn2nnc3c(=O)n(CC(=O)N4CCCc5ccccc54)cnc32)cc1 | inconclusive: -72.9%
92 | CCCNC(=S)NCc1ccc(Cl)cc1 | inconclusive: -32.9%
93 | COC(=O)c1[nH]c2ccccc2c1NC(=O)CN1CCCCCC1 | inconclusive: -40.4%
